Measured values reported in publication PMC13376596.
No constants are given. Whether binding was seen depends on the method and setting. In cells and extracts the contact can be indirect. These calls come from enrichment with a bait or labelling near it, and not all partners need be listed.

The chains behind the UniProt entries cited, without tags or fusion partners. Where a name states a change or a piece, a line headed by the entry shows the natural chain unless it says otherwise.
UniProt A0A509AJU0: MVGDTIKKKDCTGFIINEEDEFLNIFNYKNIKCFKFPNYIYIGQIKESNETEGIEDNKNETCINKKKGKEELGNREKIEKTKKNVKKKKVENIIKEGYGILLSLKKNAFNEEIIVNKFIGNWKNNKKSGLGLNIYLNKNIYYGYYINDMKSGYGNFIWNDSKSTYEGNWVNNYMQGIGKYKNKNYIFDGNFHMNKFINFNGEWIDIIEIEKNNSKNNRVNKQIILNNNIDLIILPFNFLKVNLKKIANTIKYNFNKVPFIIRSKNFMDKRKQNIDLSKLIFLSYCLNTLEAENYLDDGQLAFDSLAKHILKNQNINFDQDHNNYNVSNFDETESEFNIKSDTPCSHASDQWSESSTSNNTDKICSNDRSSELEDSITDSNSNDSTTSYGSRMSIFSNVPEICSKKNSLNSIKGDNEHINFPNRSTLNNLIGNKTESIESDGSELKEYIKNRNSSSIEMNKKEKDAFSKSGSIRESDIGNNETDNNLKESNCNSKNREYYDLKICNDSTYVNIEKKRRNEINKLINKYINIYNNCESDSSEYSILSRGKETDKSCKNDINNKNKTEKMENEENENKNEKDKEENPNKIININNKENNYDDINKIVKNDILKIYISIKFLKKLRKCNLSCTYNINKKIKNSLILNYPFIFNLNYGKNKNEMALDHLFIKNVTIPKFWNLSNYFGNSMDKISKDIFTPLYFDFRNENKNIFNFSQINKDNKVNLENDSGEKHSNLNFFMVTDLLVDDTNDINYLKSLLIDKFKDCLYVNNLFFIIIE
UniProt A0A509AU31: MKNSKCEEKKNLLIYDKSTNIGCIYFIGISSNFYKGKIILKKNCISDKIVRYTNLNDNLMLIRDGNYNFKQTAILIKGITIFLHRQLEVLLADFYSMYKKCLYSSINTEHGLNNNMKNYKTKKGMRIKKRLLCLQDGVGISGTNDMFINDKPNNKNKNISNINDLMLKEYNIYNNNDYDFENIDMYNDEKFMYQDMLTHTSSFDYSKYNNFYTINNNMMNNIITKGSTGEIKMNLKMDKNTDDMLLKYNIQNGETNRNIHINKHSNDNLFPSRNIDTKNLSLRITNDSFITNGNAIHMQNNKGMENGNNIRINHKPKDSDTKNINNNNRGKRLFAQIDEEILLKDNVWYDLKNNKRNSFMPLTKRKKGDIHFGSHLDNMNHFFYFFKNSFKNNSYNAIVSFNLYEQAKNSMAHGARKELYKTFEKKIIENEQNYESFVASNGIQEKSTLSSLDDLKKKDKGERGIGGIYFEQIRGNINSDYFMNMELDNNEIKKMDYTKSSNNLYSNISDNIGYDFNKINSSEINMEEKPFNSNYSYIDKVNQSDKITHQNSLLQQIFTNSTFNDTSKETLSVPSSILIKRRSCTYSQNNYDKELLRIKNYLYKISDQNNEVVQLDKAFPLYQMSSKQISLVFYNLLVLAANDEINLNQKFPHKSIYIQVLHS
UniProt A0A509AND3: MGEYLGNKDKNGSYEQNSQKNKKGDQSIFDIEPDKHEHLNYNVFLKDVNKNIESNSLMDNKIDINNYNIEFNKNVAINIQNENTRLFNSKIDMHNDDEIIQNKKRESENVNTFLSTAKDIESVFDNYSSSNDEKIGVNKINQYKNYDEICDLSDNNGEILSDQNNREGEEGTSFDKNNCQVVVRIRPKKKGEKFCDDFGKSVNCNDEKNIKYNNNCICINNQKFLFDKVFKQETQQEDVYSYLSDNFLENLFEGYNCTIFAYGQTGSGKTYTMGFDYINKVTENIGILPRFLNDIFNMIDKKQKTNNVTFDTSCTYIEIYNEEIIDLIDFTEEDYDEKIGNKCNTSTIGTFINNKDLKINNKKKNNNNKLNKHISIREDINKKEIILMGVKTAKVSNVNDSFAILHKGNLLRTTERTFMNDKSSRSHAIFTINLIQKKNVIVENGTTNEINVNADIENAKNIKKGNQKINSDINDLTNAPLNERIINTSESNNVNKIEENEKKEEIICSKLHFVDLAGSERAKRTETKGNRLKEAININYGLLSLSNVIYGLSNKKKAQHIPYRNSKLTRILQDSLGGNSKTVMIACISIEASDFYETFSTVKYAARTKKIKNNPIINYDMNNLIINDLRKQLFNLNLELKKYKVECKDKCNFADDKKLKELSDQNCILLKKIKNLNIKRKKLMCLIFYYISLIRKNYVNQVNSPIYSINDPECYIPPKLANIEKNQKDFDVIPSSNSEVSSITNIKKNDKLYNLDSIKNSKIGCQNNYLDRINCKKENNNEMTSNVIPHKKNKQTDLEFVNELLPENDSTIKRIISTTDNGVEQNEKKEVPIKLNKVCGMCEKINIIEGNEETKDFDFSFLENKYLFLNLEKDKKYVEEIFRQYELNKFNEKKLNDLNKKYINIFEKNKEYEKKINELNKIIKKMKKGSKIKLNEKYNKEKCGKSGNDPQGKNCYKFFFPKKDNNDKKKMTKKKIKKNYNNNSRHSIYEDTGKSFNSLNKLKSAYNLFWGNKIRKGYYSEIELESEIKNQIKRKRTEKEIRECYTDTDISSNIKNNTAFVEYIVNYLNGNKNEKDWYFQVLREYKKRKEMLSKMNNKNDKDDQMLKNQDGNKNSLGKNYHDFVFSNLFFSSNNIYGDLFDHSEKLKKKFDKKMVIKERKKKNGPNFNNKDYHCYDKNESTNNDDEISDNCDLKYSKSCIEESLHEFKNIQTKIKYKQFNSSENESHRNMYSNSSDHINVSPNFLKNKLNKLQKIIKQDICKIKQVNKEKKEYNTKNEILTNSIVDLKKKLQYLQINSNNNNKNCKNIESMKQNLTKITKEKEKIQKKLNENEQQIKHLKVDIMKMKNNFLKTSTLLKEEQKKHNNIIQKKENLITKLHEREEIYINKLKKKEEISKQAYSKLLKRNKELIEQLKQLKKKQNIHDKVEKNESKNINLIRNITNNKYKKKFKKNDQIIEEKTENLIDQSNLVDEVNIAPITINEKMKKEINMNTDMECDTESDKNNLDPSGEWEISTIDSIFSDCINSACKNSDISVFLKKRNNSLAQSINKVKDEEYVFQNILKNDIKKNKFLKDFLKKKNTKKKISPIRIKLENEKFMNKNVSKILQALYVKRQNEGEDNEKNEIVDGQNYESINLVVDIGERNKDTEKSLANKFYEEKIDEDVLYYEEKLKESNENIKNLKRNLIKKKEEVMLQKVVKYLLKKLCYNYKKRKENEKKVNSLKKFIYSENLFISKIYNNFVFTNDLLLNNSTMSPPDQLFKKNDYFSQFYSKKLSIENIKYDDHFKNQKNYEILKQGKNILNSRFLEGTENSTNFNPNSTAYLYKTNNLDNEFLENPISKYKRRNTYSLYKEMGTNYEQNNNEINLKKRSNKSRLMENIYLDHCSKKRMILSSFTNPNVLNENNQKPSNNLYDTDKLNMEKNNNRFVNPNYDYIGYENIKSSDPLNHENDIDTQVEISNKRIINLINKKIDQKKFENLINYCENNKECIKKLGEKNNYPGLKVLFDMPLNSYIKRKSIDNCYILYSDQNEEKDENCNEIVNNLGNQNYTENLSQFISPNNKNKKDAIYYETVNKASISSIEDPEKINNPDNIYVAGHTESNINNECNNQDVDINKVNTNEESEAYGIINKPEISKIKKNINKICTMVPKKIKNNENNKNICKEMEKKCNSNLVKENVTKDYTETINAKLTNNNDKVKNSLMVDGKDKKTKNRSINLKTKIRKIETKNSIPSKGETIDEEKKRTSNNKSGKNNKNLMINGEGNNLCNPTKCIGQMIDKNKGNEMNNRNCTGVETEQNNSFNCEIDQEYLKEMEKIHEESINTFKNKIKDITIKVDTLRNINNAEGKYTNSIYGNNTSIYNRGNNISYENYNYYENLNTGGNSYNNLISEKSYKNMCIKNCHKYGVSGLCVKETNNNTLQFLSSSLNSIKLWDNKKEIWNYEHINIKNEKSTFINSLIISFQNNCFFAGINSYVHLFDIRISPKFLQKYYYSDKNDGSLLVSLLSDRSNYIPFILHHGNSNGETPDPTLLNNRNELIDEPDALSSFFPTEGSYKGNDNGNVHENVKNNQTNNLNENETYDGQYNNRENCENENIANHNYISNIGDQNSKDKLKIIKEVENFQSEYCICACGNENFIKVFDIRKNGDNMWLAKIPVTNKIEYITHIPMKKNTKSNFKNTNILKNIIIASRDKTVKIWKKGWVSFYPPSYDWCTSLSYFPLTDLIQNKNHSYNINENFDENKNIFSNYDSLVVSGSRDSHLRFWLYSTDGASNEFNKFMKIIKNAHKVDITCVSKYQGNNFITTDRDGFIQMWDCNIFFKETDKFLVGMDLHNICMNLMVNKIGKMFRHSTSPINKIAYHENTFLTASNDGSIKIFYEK
UniProt A0A509ATL7: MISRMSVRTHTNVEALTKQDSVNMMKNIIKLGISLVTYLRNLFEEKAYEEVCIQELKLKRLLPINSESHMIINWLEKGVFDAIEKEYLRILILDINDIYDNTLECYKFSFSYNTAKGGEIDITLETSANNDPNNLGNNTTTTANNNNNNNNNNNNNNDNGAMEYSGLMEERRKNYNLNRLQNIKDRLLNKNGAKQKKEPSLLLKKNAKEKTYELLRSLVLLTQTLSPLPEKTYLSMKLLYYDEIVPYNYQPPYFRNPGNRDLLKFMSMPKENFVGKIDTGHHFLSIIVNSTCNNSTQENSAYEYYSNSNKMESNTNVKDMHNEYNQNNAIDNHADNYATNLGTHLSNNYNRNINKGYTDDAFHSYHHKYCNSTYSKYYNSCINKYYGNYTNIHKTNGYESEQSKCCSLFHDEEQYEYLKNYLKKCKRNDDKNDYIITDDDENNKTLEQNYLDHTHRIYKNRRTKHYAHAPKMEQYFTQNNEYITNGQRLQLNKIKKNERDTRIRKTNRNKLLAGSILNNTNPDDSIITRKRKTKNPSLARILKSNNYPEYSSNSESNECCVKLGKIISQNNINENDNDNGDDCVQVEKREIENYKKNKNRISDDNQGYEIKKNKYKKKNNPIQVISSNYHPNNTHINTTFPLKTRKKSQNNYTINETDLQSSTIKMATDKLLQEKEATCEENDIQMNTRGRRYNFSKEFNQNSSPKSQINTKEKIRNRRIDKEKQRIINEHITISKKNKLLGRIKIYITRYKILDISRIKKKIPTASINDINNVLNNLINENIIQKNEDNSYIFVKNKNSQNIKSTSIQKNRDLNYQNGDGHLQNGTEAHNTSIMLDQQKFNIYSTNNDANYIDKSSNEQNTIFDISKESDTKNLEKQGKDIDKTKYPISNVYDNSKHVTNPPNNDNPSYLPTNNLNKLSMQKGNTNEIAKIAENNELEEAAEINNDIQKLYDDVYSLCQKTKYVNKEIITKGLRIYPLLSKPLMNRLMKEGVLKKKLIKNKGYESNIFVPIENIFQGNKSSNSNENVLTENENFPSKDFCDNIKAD

Molecular target: PbNEK4-GFP (Plasmodium berghei NIMA-related kinase NEK4 with a C-terminal GFP tag) (Plasmodium berghei)
Assay: affinity purification with mass spectrometry; GFP-Trap_A (Chromotek) immunoprecipitation of PbNEK4-GFP from zygotes activated for 2 h and cross-linked with 1% formaldehyde for 10 min at room temperature; WT-GFP zygotes as control; on-bead trypsin digest, LC-MS/MS; two independent biological replicates

binding | Substance
binds | MORN repeat protein (PBANKA_1030400) (from UniProt A0A509AJU0)
binds | REC8 (PBANKA_1419300) (from UniProt A0A509AU31)
binds | Kinesin-4 (PBANKA_1208200) (from UniProt A0A509AND3)
binds | HOP1 (putative synaptonemal complex component, PBANKA_1407900) (from UniProt A0A509ATL7)
